Data on 39 targets can be found in the supplement of paper PMC12819154, “High-throughput peptide-centric local stability assay extends protein–ligand identification to membrane proteins, tissues and bacteria” (Nature Structural & Molecular Biology, 2025).

Sequences of proteins named here, by UniProt entry; tags and fusion partners are left off. A change or cut given only in a name is not applied to a line headed by its entry.
UniProt O70373: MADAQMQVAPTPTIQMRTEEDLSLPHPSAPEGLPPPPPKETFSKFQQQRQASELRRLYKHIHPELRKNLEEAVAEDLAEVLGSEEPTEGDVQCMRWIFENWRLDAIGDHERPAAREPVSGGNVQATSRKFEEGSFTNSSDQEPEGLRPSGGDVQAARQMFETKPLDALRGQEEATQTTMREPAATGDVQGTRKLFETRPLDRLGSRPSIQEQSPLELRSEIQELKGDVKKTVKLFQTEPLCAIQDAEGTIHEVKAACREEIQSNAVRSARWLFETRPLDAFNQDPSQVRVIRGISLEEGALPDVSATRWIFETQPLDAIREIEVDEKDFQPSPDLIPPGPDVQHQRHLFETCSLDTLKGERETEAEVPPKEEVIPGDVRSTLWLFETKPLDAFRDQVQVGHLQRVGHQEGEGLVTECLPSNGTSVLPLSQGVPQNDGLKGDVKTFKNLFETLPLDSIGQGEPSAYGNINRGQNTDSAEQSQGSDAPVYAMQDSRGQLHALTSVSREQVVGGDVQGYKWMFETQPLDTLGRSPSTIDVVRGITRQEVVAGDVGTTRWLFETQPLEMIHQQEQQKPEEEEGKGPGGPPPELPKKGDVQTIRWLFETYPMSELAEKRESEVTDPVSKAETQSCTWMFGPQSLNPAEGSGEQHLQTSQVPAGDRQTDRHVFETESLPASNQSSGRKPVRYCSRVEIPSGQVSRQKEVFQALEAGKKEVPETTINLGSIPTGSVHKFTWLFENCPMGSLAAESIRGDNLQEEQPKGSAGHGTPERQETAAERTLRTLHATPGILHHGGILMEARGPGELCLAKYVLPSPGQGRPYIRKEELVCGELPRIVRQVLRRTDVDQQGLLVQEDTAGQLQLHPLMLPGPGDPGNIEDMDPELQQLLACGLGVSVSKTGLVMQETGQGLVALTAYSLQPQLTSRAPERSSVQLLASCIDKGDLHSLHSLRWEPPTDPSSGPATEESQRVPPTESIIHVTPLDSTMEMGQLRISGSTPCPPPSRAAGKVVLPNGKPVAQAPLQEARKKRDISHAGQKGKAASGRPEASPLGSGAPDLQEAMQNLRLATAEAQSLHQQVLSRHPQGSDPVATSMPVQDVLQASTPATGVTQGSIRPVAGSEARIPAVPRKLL
UniProt O35963: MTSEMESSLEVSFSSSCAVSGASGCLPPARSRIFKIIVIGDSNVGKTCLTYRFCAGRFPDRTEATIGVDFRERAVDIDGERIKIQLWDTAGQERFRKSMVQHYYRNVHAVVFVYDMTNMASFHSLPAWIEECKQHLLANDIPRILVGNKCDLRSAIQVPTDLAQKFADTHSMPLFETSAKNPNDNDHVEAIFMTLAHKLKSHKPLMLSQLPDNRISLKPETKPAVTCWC
UniProt O35658: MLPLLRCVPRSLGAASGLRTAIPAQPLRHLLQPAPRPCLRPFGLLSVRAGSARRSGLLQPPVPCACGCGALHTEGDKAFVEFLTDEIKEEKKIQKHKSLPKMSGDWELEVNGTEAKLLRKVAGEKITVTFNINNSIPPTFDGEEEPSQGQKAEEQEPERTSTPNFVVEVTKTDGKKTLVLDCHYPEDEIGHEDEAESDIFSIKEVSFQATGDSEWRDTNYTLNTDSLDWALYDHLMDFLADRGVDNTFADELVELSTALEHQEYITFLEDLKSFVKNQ
UniProt O88574: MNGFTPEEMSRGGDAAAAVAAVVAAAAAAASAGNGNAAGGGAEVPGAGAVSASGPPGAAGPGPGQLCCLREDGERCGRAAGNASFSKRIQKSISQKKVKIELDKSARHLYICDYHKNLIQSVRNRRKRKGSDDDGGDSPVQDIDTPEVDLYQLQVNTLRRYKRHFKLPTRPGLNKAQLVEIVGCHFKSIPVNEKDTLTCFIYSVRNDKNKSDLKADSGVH
UniProt O35491, whole entry, looked up: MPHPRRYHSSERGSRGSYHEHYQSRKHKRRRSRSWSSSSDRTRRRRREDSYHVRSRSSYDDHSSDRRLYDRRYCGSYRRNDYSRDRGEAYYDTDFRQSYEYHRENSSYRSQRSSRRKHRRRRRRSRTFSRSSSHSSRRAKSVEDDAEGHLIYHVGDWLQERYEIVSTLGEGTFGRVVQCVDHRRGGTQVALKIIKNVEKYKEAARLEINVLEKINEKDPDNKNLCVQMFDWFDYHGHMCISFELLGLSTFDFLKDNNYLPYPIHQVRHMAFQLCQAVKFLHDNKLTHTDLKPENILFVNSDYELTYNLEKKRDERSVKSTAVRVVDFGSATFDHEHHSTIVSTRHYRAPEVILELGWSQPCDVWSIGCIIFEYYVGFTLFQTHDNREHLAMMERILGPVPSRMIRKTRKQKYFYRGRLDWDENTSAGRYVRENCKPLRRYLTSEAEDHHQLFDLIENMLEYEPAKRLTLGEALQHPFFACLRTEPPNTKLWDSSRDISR
UniProt O55143: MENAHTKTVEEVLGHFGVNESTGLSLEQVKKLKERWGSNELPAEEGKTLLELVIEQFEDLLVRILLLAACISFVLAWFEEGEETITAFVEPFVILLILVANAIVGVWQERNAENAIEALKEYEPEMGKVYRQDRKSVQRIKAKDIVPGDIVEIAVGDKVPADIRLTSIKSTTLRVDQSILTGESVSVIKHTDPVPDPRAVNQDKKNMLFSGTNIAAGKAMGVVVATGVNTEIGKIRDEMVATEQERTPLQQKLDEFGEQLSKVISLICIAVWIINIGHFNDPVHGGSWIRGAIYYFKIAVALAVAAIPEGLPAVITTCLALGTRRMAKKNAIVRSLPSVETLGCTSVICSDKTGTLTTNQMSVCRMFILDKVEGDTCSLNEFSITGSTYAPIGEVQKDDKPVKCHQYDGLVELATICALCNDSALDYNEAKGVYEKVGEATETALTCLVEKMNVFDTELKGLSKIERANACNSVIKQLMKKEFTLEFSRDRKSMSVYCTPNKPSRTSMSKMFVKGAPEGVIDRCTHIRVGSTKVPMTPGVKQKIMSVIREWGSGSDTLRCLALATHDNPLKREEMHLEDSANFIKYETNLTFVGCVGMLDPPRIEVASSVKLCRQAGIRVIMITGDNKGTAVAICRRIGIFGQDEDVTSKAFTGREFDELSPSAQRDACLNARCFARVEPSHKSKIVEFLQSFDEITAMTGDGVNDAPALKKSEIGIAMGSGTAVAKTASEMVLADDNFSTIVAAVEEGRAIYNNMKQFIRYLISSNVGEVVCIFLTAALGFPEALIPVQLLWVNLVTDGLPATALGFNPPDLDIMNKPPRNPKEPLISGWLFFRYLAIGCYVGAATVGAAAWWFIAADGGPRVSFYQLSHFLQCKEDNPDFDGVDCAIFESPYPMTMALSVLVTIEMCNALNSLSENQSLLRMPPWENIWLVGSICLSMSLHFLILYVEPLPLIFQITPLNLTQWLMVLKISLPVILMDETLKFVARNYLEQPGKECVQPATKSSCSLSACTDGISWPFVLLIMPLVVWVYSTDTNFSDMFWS
UniProt O88196: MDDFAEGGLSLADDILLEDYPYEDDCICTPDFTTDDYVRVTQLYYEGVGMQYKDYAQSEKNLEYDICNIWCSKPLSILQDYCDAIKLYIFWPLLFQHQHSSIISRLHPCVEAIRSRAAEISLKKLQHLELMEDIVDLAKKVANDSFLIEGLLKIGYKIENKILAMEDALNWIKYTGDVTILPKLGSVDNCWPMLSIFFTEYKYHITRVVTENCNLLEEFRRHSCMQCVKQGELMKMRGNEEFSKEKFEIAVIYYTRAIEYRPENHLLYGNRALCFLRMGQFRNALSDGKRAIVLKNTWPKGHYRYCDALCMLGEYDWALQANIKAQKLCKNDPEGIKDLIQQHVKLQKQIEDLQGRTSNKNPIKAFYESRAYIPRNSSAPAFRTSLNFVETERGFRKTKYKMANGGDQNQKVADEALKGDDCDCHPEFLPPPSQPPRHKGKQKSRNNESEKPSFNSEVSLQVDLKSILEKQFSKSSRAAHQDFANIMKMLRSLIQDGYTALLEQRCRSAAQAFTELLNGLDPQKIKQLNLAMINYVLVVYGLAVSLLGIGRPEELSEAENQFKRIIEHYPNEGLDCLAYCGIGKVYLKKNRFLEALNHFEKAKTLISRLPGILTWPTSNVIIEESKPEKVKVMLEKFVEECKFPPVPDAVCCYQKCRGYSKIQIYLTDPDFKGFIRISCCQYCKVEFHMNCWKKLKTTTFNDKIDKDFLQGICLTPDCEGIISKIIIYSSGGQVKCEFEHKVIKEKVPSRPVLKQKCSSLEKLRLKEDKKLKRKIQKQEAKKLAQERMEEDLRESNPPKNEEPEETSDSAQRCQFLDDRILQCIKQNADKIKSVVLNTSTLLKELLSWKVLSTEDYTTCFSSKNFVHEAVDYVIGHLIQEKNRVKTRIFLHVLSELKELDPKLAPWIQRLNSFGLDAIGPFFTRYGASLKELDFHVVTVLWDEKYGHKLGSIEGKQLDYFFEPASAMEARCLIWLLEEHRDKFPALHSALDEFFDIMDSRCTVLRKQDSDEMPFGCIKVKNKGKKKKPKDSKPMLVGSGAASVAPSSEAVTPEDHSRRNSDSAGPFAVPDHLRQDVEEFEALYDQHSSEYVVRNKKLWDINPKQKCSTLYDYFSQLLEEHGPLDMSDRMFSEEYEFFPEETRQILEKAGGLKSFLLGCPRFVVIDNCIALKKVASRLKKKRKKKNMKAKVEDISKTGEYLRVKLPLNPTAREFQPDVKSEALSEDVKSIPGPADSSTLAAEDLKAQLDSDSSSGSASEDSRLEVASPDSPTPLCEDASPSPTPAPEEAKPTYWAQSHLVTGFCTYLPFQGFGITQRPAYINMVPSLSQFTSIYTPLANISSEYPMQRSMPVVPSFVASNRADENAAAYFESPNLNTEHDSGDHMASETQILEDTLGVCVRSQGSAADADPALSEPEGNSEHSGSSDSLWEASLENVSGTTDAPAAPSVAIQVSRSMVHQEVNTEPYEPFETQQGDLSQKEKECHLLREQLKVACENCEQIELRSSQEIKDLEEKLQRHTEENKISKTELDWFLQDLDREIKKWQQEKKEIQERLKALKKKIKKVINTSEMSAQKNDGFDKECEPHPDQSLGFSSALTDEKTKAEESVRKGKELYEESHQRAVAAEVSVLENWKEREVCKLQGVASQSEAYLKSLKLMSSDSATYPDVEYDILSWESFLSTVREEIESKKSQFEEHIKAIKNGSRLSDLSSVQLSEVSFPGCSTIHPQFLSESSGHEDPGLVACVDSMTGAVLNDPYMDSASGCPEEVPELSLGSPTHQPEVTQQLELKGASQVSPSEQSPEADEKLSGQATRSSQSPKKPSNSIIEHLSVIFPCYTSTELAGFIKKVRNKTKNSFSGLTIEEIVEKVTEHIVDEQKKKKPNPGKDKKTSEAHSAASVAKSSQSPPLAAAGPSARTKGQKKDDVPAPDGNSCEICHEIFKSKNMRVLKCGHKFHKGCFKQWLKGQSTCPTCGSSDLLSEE
UniProt O35691: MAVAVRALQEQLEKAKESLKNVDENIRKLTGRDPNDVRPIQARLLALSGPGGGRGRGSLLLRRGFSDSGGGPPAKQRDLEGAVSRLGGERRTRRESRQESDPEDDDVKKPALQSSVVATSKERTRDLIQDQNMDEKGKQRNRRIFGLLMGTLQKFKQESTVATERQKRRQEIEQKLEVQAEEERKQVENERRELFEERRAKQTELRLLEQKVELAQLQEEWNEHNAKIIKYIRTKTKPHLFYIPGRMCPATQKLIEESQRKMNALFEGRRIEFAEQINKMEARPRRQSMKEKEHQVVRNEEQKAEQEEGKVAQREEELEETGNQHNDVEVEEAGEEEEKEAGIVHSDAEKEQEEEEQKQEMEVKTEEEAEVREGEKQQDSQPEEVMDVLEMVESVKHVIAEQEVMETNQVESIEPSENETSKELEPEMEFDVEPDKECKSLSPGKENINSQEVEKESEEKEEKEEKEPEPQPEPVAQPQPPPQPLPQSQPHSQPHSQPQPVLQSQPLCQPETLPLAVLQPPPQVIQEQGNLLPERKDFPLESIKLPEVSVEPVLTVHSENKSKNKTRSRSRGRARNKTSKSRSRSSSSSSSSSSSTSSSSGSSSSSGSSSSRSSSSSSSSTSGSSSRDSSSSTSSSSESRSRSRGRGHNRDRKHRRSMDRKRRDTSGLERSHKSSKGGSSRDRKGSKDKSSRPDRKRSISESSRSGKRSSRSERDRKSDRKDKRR
UniProt O88597, whole entry: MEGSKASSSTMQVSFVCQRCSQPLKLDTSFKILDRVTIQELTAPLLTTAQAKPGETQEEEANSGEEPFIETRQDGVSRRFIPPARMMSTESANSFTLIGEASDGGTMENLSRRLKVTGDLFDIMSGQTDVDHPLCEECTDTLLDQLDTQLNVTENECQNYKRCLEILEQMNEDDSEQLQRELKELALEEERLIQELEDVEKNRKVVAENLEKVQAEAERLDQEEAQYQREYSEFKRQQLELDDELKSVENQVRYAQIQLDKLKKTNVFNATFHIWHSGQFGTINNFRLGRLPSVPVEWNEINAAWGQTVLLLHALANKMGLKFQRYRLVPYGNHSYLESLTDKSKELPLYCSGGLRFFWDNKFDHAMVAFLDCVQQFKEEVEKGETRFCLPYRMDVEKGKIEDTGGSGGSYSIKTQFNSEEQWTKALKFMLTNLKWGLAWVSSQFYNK

This is one part of the list. Small differences around the control level are noise.

Compound in this experiment: CN[C@@H]1C[C@H]2O[C@@](C)([C@@H]1OC)n1c3ccccc3c3c4c(c5c6ccccc6n2c5c31)C(=O)NC4 [staurosporine]
Briefly: log2 fold change of tryptic peptide abundance, ligand vs vehicle (limited proteolysis) (log2 ratio); higher = more trypsin-susceptible (destabilized). Conditions: ligand concentration: 20 uM; sample: mouse liver crude lysate; replicate design: treated separately.
As for “UniProt O35980 (peptide sequence: IASEGCREELAPR, peptide start residue: 18)”, the log2 fold change is -0.113.

In the case of “UniProt O70373 (peptide sequence: LATAEAQSLHQQVLSR, peptide start residue: 1064)”, the log2 fold change is -0.237.

As to “UniProt O35963 (peptide sequence: AVDIDGER, peptide start residue: 74)”, the log2 fold change is -0.139.

With “UniProt O35930 (peptide sequence: SSLFLWVRPNGR, peptide start residue: 689)”, the log2 fold change was -0.0819.

As to “UniProt O35627 (peptide sequence: LMGLLADLR, peptide start residue: 322)”, the log2 fold change stood at 0.131.

For “UniProt O35658 (peptide sequence: AFVEFLTDEIKEEK, peptide start residue: 78)”, the log2 fold change turned out to be 0.141.

As to “UniProt O54915 (peptide sequence: IMAVLTELR, peptide start residue: 390)”, the log2 fold change was 0.036.

“UniProt O88574 (peptide sequence: HLYICDYHK, peptide start residue: 108)”: the log2 fold change was found to be 0.378.

“UniProt O88673 (peptide sequence: RPHGDTCEINQALGSAAK, peptide start residue: 612)”: the log2 fold change is -0.396.

“UniProt O70194 (peptide sequence: DMPYQPFSK, peptide start residue: 27)”: the log2 fold change was 0.156.

Turning to “UniProt O35717 (peptide sequence: CLEPSGNGADR, peptide start residue: 5)”, the log2 fold change came to 0.57.

In the case of “UniProt O70279 (peptide sequence: HAWLYQAEEEFEKR, peptide start residue: 181)”, the log2 fold change is -0.326.

Turning to “UniProt O35491 (peptide sequence: EHLAMMER, peptide start residue: 385)”, the log2 fold change was -0.389.

For the target “UniProt O55143 (peptide sequence: VGSTKVPMTPGVK, peptide start residue: 529)”, the log2 fold change amounted to 0.233.

As for “UniProt O88342 (peptide sequence: IKDIAWTEDSKR, peptide start residue: 105)”, the log2 fold change is -0.556.

As to “UniProt O88491 (peptide sequence: LLNNMHEK, peptide start residue: 734)”, the log2 fold change is -0.742.

“UniProt O88196 (peptide sequence: KWQQEKK, peptide start residue: 1542)”: the log2 fold change worked out at 0.077.

Turning to “UniProt O88533 (peptide sequence: HSHQDSGFITDYR, peptide start residue: 335)”, the log2 fold change is 0.0189.

As for “UniProt O35691 (peptide sequence: TKPHLFYIPGR, peptide start residue: 236)”, the log2 fold change turned out to be 0.187.

Turning to “UniProt O70258 (peptide sequence: DMQTPDIQLVHHSSIQK, peptide start residue: 350)”, the log2 fold change was 0.182.

As for “UniProt O88668 (peptide sequence: LPPLPPREDGPR, peptide start residue: 46)”, the log2 fold change was -0.263.

Take “UniProt O88735 (peptide sequence: GGDGATHSDPASDGYK, peptide start residue: 13)”: the log2 fold change came to 0.173.

For the target “UniProt O35648 (peptide sequence: GELVVDKTK, peptide start residue: 7)”, the log2 fold change is -0.181.

“UniProt O54788 (peptide sequence: LVHIACHK, peptide start residue: 302)”: the log2 fold change was 0.301.

Regarding “UniProt O54714 (peptide sequence: VSLMCPLGK, peptide start residue: 342)”, the log2 fold change amounted to 0.219.

As for “UniProt O88569 (peptide sequence: GFGFVTFDDHDPVDK, peptide start residue: 154)”, the log2 fold change amounted to 0.171.

In the case of “UniProt O70230 (peptide sequence: MQIVLQGHATR, peptide start residue: 214)”, the log2 fold change is -0.155.

In the case of “UniProt O88543 (peptide sequence: CIELDER, peptide start residue: 383)”, the log2 fold change is -0.314.

“UniProt O70228 (peptide sequence: GEAHLELNAFRR, peptide start residue: 798)”: the log2 fold change amounted to 0.223.

Consider “UniProt O88852 (peptide sequence: AFQHLEQK, peptide start residue: 191)”, for which the log2 fold change is -0.692.

As for “UniProt O54750 (peptide sequence: GTMVLTNLTALHRDPK, peptide start residue: 397)”, the log2 fold change was found to be 0.273.

Consider “UniProt O88544 (peptide sequence: EALPTWDK, peptide start residue: 365)”, for which the log2 fold change is -0.29.

Consider “UniProt O88502 (peptide sequence: IHSMMIEAPITK, peptide start residue: 380)”, for which the log2 fold change is -0.171.

Regarding “UniProt O88843 (peptide sequence: KTMLLLDILPSRGPK, peptide start residue: 53)”, the log2 fold change was -0.224.

Regarding “UniProt O70458 (peptide sequence: LHIEDVPTKPPIVPTEK, peptide start residue: 822)”, the log2 fold change is -0.512.

With “UniProt O88343 (peptide sequence: SYHEIGR, peptide start residue: 336)”, the log2 fold change was -0.164.

With “UniProt O55240 (peptide sequence: VVNITSVLGR, peptide start residue: 158)”, the log2 fold change was 0.158.

“UniProt O70405 (peptide sequence: IADFGFAR, peptide start residue: 163)”: the log2 fold change was -0.572.

Regarding “UniProt O88597 (peptide sequence: QQLELDDELK, peptide start residue: 237)”, the log2 fold change was 0.297.
